Drawing on paper doi:10.1101/2023.01.18.524551, this text covers binding for 2 substances.

Chains of the proteins cited; added tags and fusions are not shown. Residues count along the entry.
UniProt Q16581: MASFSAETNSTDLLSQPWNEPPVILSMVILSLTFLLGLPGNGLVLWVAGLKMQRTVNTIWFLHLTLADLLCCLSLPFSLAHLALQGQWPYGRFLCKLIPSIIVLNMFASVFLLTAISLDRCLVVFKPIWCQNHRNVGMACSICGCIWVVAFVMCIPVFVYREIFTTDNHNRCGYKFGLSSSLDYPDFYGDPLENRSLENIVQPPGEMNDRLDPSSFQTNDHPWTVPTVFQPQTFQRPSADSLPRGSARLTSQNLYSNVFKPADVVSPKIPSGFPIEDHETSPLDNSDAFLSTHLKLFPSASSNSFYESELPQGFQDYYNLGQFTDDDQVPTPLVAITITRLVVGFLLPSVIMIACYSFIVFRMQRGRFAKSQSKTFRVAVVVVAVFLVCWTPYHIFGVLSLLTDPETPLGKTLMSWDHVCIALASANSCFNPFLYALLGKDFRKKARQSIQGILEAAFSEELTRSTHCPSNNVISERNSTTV
UniProt P21730: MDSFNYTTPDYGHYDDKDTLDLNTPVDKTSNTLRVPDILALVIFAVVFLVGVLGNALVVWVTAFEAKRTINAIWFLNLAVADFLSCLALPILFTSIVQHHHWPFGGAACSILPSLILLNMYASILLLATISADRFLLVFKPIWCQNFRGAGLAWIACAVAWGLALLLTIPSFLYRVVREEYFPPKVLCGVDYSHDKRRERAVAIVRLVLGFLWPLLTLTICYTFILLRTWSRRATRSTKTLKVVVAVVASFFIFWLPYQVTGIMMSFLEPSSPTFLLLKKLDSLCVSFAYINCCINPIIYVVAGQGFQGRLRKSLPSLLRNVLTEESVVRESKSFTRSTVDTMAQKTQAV
UniProt P01024, residues 672-748: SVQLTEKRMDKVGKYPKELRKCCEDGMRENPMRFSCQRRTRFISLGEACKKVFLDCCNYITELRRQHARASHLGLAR
UniProt P01031, residues 678-751: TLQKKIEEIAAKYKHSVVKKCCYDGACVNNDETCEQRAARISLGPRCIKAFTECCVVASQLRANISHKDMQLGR

These are yes or no findings as the source states them, for the method shown. Some results given as binding are weak or reduced against the parent protein; the word gives no strength.

Assay [1] concerns the target full length human C3aR (residues 1-482), FLAG-BN at the N-terminus, His8 at the C-terminus (human) (UniProt Q16581). Briefly: cryo-EM structure.
Assay [2] concerns the target full length human C5aR1 (residues 1-350), FLAG-BN at the N-terminus, His8 at the C-terminus (human) (UniProt P21730). Briefly: cryo-EM structure.

“His6-SUMOstar-C3a (recombinant human C3a, residues 1-77) (from UniProt P01024 672-748) (ligand)”: the binding entry in assay [1] is on record as “binds”.
Take “His6-SUMOstar-C5a (recombinant human C5a, residues 1-74) (from UniProt P01031 678-751) (ligand)”: the binding entry in assay [2] was “binds”.
